According to patent US12699101B2, “Maximizing hydrophobic peptide recovery using a mass spectrometry compatible surfactant” (Regeneron Pharmaceuticals, Inc., priority 2022, dated 2026):

Experiment: Single cell proteomics LC-MS/MS analysis of 0.2 ng HeLa digests prepared with DDM or FA
Set-up: species or system human
Settings: 0.2 ng HeLa digest, 0.015% DDM
Experimental: HeLa cell lysate protein digests were diluted to 0.05 ng/μL by 0.1% FA or 0.015% DDM solution, and 0.2 ng (4 μL) was injected onto the LC-MS to simulate single cell sample analysis. Sixteen synthetic peptides from a mAb's constant region and CDR were diluted and mixed to a final concentration of 10 fmol/μL by 0.1% FA, 0.015% DDM solution or complex cell digest matrix. In reconstitution experiments, 20 μL of 500 fmol/μL BSA digests and 200 ng/μL HeLa digests were aliquoted into vials and dried in vacuo. Dried samples were reconstituted by 0.1% FA or 0.015% DDM solution. One picomole BSA digests and 100 ng HeLa digests were loaded onto the column for nanoLC-MS/MS analysis.
Single cell samples and reconstituted samples were analyzed using an UltiMate 3000 RSLCnano system (Thermo Scientific) coupled to an Orbitrap Exploris 480 mass spectrometer (Thermo Scientific). […]
Database searches for protein identification were performed using SEQUEST and Mascot embedded into Proteome Discoverer 2.2 (Thermo Fisher Scientific). […] Peptide mapping and BSA sample data were analyzed using Protein Metrics Byonic™ (version 3.11.3) by searching the raw files against the mAb or BSA protein sequence. All peptide quantification was executed using Skyline Daily software (University of Washington, WA) by extracting the MS' peak area of all detected charge states. […]

Compound: CCCCCCCCCCCCO[C@@H]1O[C@H](CO)[C@@H](O[C@H]2O[C@H](CO)[C@@H](O)[C@H](O)[C@H]2O)[C@H](O)[C@H]1O [DDM, N-dodecyl-β-D-maltoside]
- number of identified protein groups (triplicate (control 0.1% FA: 168)): 368
- number of identified unique peptides (triplicate (control 0.1% FA: 363)): 964
